Results published in article PMC7481392.
These are yes or no findings as the source states them, for the method shown. Binding seen in cells or lysates may run through a third protein. Some results given as binding are weak or reduced against the parent protein; the word gives no strength. Sequences can lack the tags named with a protein.

Tests used:
[1] = biological target: K455A-Prc, catalytically inactive Prc mutant, C-terminally His6-tagged (E. coli) (UniProt P23865); assay: co-IP; K455A-Prc-His6 and MltG-HA coexpressed in E. coli; lysate in 20 mM Tris-HCl, 200 mM NaCl, pH 7.5, 2% Triton X-100; IP with anti-His or anti-HA antibody and protein G magnetic beads, 4°C; immunoblot with anti-His and anti-HA
[2] = biological target: T1, MltG with a C-terminal HA tag (from pACYC184-MltG-HA) (E. coli) (UniProt P28306); assay: as above
T1 sequence: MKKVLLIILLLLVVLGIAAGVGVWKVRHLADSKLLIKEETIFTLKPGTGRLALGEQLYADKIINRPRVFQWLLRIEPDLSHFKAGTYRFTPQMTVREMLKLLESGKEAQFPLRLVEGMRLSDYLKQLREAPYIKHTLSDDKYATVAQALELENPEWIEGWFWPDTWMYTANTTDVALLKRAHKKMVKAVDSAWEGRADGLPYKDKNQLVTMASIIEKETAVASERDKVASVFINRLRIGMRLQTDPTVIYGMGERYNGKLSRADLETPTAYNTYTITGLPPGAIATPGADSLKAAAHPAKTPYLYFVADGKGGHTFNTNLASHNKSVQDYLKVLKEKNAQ

B1: MltG with a C-terminal HA tag (from pACYC184-MltG-HA) (protein, UniProt P28306 1-340)
chain: MKKVLLIILLLLVVLGIAAGVGVWKVRHLADSKLLIKEETIFTLKPGTGRLALGEQLYADKIINRPRVFQWLLRIEPDLSHFKAGTYRFTPQMTVREMLKLLESGKEAQFPLRLVEGMRLSDYLKQLREAPYIKHTLSDDKYATVAQALELENPEWIEGWFWPDTWMYTANTTDVALLKRAHKKMVKAVDSAWEGRADGLPYKDKNQLVTMASIIEKETAVASERDKVASVFINRLRIGMRLQTDPTVIYGMGERYNGKLSRADLETPTAYNTYTITGLPPGAIATPGADSLKAAAHPAKTPYLYFVADGKGGHTFNTNLASHNKSVQDYLKVLKEKNAQ
- binding [1]: binds

B2: K455A-Prc, catalytically inactive Prc mutant, C-terminally His6-tagged (enzyme, UniProt P23865 23-682)
chain: VEDITRADQIPVLKEETQHATVSERVTSRFTRSHYRQFDLDQAFSAKIFDRYLNLLDYSHNVLLASDVEQFAKKKTELGDELRSGKLDVFYDLYNLAQKRRFERYQYALSVLEKPMDFTGNDTYNLDRSKAPWPKNEAELNALWDSKVKFDELSLKLTGKTDKEIRETLTRRYKFAIRRLAQTNSEDVFSLAMTAFAREIDPHTNYLSPRNTEQFNTEMSLSLEGIGAVLQMDDDYTVINSMVAGGPAAKSKAISVGDKIVGVGQTGKPMVDVIGWRLDDVVALIKGPKGSKVRLEILPAGKGTKTRTVTLTRERIRLEDRAVKMSVKTVGKEKVGVLDIPGFYVGLTDDVKVQLQKLEKQNVSSVIIDLRSNGGGALTEAVSLSGLFIPAGPIVQVRDNNGKVREDSDTDGQVFYKGPLVVLVDRFSASASEIFAAAMQDYGRALVVGEPTFGAGTVQQYRSLNRIYDQMLRPEWPALGSVQYTIQKFYRVNGGSTQRKGVTPDIIMPTGNEETETGEKFEDNALPWDSIDAATYVKSGDLTAFEPELLKEHNARIAKDPEFQNIMKDIARFNAMKDKRNIVSLNYAVREKENNEDDATRLARLNERFKREGKPELKKLDDLPKDYQEPDPYLDETVNIALDLAKLEKARPAEQPAPVK
modifications: Dylight 549 NHS ester on amines (array assay only)
- binding [2]: binds
